Source: PubChem BioAssay AID493014 (National Center for Advancing Translational Sciences (NCATS), 2011)
The other results are listed elsewhere or left out. The main result of the screen is listed elsewhere. These columns were measured beside it and carry no call. Compounds called inactive in the main read-out are mostly missing here. Words in brackets tell the shape of the fitted curve; partial curves, single points and poor fits give uncertain potencies.

Assay: qHTS Assay to Find Inhibitors of Chronic Active B-Cell Receptor Signaling
Details: ABC-DLBCL IkBa-CBG/CBR reporter, luminescence ratio (green luciferase fused to IkBa over red control in TMD8 lymphoma cells), 4 h
How it was run: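 Concentration-response series (up to 46 uM) were applied to TMD8 dual-reporter cells for 4 h at 37C with doxycycline. Green/red ratio, after filter-overlap correction, defined %Activity; red signal alone was normalised to basal cells and zero luminescence.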

[1] = measured here: CBR red luminescence, cell number

SMILES | AC50 [1] | AC50 (measured here: IkBa-CBG green luminescence)
O=C(COC(=O)c1ncc(Cl)c(Cl)c1Cl)Nc1ccccc1OC(F)F | 29.1 µM [falling, single point] | –
O=C(NCCc1ccccc1F)N[C@@H](Cc1ccccc1)C(=O)O | 35.5 µM [rising, single point] | –
CCc1ccc2oc(-c3cc(N)cc(C)c3O)nc2c1 | 29.1 µM [falling, single point] | –
CCN(CC)c1ccc(/C=N/n2c(C)cc(C)cc2=O)cc1 | 6.31 µM [rising, single point] | –
c1ccc(-c2nc3cc4ccccc4cc3[nH]2)nc1 | 4.61 µM [falling, full curve] | –
COc1ccc(S(=O)(=O)CCC(=O)Nc2c(C)n(C)n(-c3ccccc3)c2=O)cc1 | 3.66 µM [rising, partial curve, poor fit] | –
CCOc1ccccc1/C=N/NC(=O)c1cccc(Cl)c1 | 3.26 µM [rising, partial curve] | –
O=C(Nc1ccc(-c2nnc3n2CCCCC3)cc1)c1cc2ccccc2o1 | 20.6 µM [falling, single point] | –
CC1=CC(C)(C)N=C(NC#N)N1 | 13 µM [rising, partial curve, poor fit] | –
Clc1ccccc1-c1csc(Nc2cccnc2)n1 | 2 µM [rising, full curve] | –
CCC(=O)NC(Nc1c(C)n(C)n(-c2ccccc2)c1=O)C(Cl)(Cl)Cl (centres undefined) | 0.708 µM [rising, full curve, poor fit] | –
CC(Oc1ccc(Cl)cc1Cl)C(=O)/C=C/N(C)C (centres undefined) | 15.8 µM [rising, single point] | –
Cc1c(N2C(=O)C(=O)/C(=C(/O)c3ccc(Cl)cc3)C2c2ccccc2)c(=O)n(-c2ccccc2)n1C (centres undefined) | 6.51 µM [rising, single point] | –
CCc1nc(SCc2ccc(OCC(C)C)cc2)n[nH]1 | 3.16 µM [rising, partial curve, poor fit] | –
CS(=O)(=O)N(CC(=O)Nc1ccccc1C(=O)NCCc1ccccc1)c1ccc2c(c1)OCCO2 | 6.51 µM [rising, single point] | –
O=C(/C=C/c1cc([N+](=O)[O-])ccc1OC(F)F)Nc1cccc([N+](=O)[O-])c1 | 35.5 µM [rising, single point] | –
CCOc1ccccc1NC(=O)CN1c2cccc3cccc(c23)S1(=O)=O | 4.11 µM [falling, full curve] | 20.6 µM [falling, partial curve, poor fit]
O=C(CCCN1C(=O)/C(=C/c2ccc(F)cc2)SC1=S)NC1CCS(=O)(=O)C1 (centres undefined) | 3.98 µM [falling, partial curve] | –

Reformatted tab-delimited: part of the list above
SMILES	AC50 [1]	AC50 (measured here: IkBa-CBG green luminescence)
CCc1ccc2oc(-c3cc(N)cc(C)c3O)nc2c1	29.1 µM [falling, single point]	–
CCN(CC)c1ccc(/C=N/n2c(C)cc(C)cc2=O)cc1	6.31 µM [rising, single point]	–
c1ccc(-c2nc3cc4ccccc4cc3[nH]2)nc1	4.61 µM [falling, full curve]	–
COc1ccc(S(=O)(=O)CCC(=O)Nc2c(C)n(C)n(-c3ccccc3)c2=O)cc1	3.66 µM [rising, partial curve, poor fit]	–
